Test results taken from patent US12257216B2, “Treatment for hot flushes” (Dignity Health, priority 2017, dated 2025).
Entries after “also recorded” stand apart in the source; their conditions may differ. At least one compound was matched to its structure with a doubt left.

Columns and labels:
ovariectomized rats [1] = test: internal warming-induced cessation of warm sucrose intake test (sucrose intake cessation test); type: in vivo, rat; settings: Experiment 4; ovariectomized rats with estradiol replacement via subcutaneous capsule; after heat exposure (32.5° C., 10 min)
Protocol: Experiments were performed in adult female Wistar rats (Envigo) weighting 240-280 g at the day of the first surgery (Day 0). Rats were housed three per cage in standard “show boxes”. The room was maintained on a 12:12 h light-dark cycle (lights-on at 6 AM) at 24±2° C. All protocols were approved by the Institutional Animal Care and Use Committee. On Day 0, each rat was subjected to a bilateral ovariectomy or sham surgery, either with or without simultaneous implantation of a miniature data logger into the peritoneal cavity for body temperature measurement. On Day 7, the ovariectomized rats were implanted subcutaneously with a capsule containing either estradiol or vehicle, and the sham-operated rats were implanted with a capsule containing vehicle. On Days 6-15, the rats were habituated to experimental setups and procedures. […] Each burette was fitted with a stainless steel spout and filled with a 0.3 M sucrose solution at either 27 or 40° C., and sucrose solution consumption was recorded for 15 min. […] All data arc expressed as mean±SE. The preferred ambient temperature and sucrose intake data analyzed by a two-way repeated-measurements ANOVA, followed by the Fisher or Newman-Keuls multiple comparisons test, as appropriate. The uterus mass data were analyzed by a one-way ANOVA followed by the Fisher test. […]

ovariectomized rats [2] = test: ambient warming-induced cold-seeking test in a thermogradient apparatus; type: in vivo, rat; settings: Experiments 1-3; ovariectomized rats with estradiol replacement via subcutaneous capsule; vs OVX Vehicle
Protocol: Experiments were performed in adult female Wistar rats (Envigo) weighting 240-280 g at the day of the first surgery (Day 0). Rats were housed three per cage in standard “show boxes”. The room was maintained on a 12:12 h light-dark cycle (lights-on at 6 AM) at 24±2° C. All protocols were approved by the Institutional Animal Care and Use Committee.
On Day 0, each rat was subjected to a bilateral ovariectomy or sham surgery, either with or without simultaneous implantation of a miniature data logger into the peritoneal cavity for body temperature measurement. On Day 7, the ovariectomized rats were implanted subcutaneously with a capsule containing either estradiol or vehicle, and the sham-operated rats were implanted with a capsule containing vehicle. On Days 6-15, the rats were habituated to experimental setups and procedures. The rats were taken into experiments between Days 16 and 20 (Experiments 1-3) or on Days 13 and 20 (Experiment 4); each rat was used in two experiments. Thermal discomfort was studied in one of two tests: the ambient warming-induced cold-seeking test in a thermogradient apparatus (cold-seeking test; Experiments 1-3) or the internal warming-induced cessation of warm sucrose intake test (sucrose intake cessation test; Experiment 4). […]
Cold-seeking test. […] The preferred ambient temperature was recorded for 10 min. […]

Structure (SMILES): C[C@]12CC[C@@H]3c4ccc(O)cc4CC[C@H]3[C@@H]1CC[C@@H]2O [Estradiol, estradiol]
- cumulative intake of warm (40° C.) sucrose solution (warming-avoidance effect) (ovariectomized rats [1]): strongly attenuated this warming-avoidance effect; also recorded: significant difference
- heat exposure-induced cold-seeking behavior (preferred ambient temperature) (ovariectomized rats [2]): blocks this effect; also recorded: significant difference
